Reference: PubChem BioAssay AID493014 (National Center for Advancing Translational Sciences (NCATS), 2011)
About 170 (0.05%) of roughly 340,000 compounds were called active. This list was built around the results that the source calls inconclusive (neither active nor inactive); the mix of calls is not that of the screen. The call rests on the fitted dose curve; in most records, active means well fitted inhibition curve with a large enough effect in the signal ratio, with a control signal flat (not every such curve was filed as active); inconclusive means small, poorly fitted or top-dose-only effect, or effect the other way, or a change in a side signal; inactive means flat fitted curve, though single readings scatter; the % refers to the signal ratio. Where the call is inconclusive, the potency comes from a doubtful curve fit.

assay: qHTS Assay to Find Inhibitors of Chronic Active B-Cell Receptor Signaling; conditions: ABC-DLBCL IkBa-CBG/CBR reporter, luminescence ratio (green luciferase fused to IkBa over red control in TMD8 lymphoma cells), 4 h; activity change, negative = inhibition: at 46.1 µM (top of the series) unless noted;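 on activity change, negative = inhibition: plate controls were basal doxycycline-induced cells for no effect and cells given 10 µM MG132 for full effect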
Method in brief: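 Doxycycline induced both beetle luciferases in TMD8 lymphoma cells; IKK-driven degradation limits the IkappaBalpha-fused green signal, while red luminescence normalises for cell number and nonspecific effects. Compounds tested up to 46 uM, 4 hrs.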
Potency means the concentration at half of the fitted maximal effect.

SMILES | activity change, negative = inhibition | Potency
O=C(Nc1ccc2c(c1)N(S(=O)(=O)c1cccs1)CCC2)c1c(F)cccc1Cl | inconclusive: -0.729% | –
COc1cc(-c2nc(-c3ccncc3)no2)cc(OC)c1OC | inconclusive: 5.74% | –
O=S1(=O)CC(O)C(N2CCCCC2)C1 (stereo not drawn) | inconclusive: -31.2% | –
O=C(N1CCCC1)N1CCN(c2ncnc3c(-c4ccc(Cl)cc4)nsc23)CC1 | inconclusive: 4.68% | –
COc1ccc(OC)c(-c2csc(N(Cc3ccco3)C(=O)c3ccco3)n2)c1 | inactive | –
COc1cccc(C(=O)Nc2ccccc2-c2ccccc2)c1 | inactive | –
COC(=O)C1=C(N)Oc2cc(C)n(CCN3CCOCC3)c(=O)c2C1c1cccnc1 (stereo not drawn) | inconclusive: 2.29% | –
CCOC(=O)c1c(NC(=O)CN2C(=O)NC3(CCCCC3C)C2=O)sc(C)c1C (stereo not drawn) | inconclusive: 1.29% | –
C=CCn1c(SCc2c(C(=O)OC)sc(N)c2C(=O)OC)nnc1-c1ccc(Cl)cc1 | inconclusive: 4.31% | –
COc1ccc(C(=O)C2CCCN(Cc3cccn3-c3ccccn3)C2)c(C)c1 (stereo not drawn) | – | inconclusive: 22.4 µM [falling, single point]
Cn1cccc1C(=O)OCC(=O)Nc1ccc2c(c1)OCCO2 | inconclusive: 1.03% | –
COC(=O)[C@H](CCSC)NC(=O)c1cccnc1SC | inconclusive: 8.65% | –
CCC/C(O)=C1\C(=O)CC(C)(C)CC1=Nc1ccccc1O | inconclusive: -25.6% | –
O=C(Nc1ccc(Br)cc1)C1CCCN(C2=NS(=O)(=O)c3ccccc32)C1 (stereo not drawn) | inconclusive: 7.67% | –
CN(n1cnc2ccccc2c1=O)S(C)(=O)=O | – | inconclusive: 1.78 µM [falling, partial curve, poor fit]
c1ccc([C@H]2CNCCN2CCc2cccc3ccccc23)cc1 | inconclusive: -2.9% | –
CC1(C)CC(c2nc(-c3ccc([N+](=O)[O-])cc3)cs2)CCO1 (stereo not drawn) | inconclusive: 3.88% | –
COCCn1c(SCC(=O)N2CCc3ccccc3C2)nc2cc(Cl)ccc2c1=O | inconclusive: -0.89% | –
CCOc1ccc(NC(=O)c2c(NCc3cccs3)sc3c2CCC(C)C3)cc1 (stereo not drawn) | inactive | –
CC1CCc2[nH]c3ccc(C(=O)N4CCCC(C(F)(F)F)C4)cc3c2C1 (stereo not drawn) | – | inconclusive: 10.3 µM [activator, partial curve]
CC(C)NC(=O)CSc1c2c(nc3ccccc13)CCCC2 | inconclusive: -18.1% | –

SMILES | activity change, negative = inhibition | Potency
CCS(=O)(=O)N1Cc2ccccc2CC1C(=O)Nc1ncc(C)s1 (stereo not drawn) | inactive | –
COc1ccc(-c2cnc(N)nc2-c2ccc(OCc3ccccc3)cc2O)cc1 | inactive | –
COc1ccc(N2CCN(CC(O)COc3c(OC)cccc3OC)CC2)cc1 (stereo not drawn) | – | inconclusive: 0.562 µM [falling, partial curve, poor fit]
COc1ccc(OC)c(-c2csc(CCn3nc(C)cc3C)n2)c1 | inactive | –
CC1CCCCN1c1ncnc(N)c1[N+](=O)[O-] (stereo not drawn) | inconclusive: -0.42% | –
CCN(CC)S(=O)(=O)c1ccc(N2CCCCC2)c(NC(=O)c2ccncc2)c1 | – | inconclusive: 22.4 µM [falling, single point]
COc1cc(/C=N/NC(=O)c2ccncc2)ccc1OCC(=O)Nc1ccccc1 | inconclusive: -28.1% | –
CCC(=O)Nc1c(C(=O)Nc2cccc(OC)c2)oc2ccccc12 | inconclusive: -5.85% | –
CC1SC(C)C(=O)N(CC(=O)Nc2ccc([N+](=O)[O-])cc2)C1=O (stereo not drawn) | – | inconclusive: 0.794 µM [falling, full curve, poor fit]
O=C(/C=C/c1ccc2c(c1)OCO2)Nc1ccc(Cl)cn1 | inconclusive: -0.33% | –
COc1ccc(O)c(C(=O)c2cnc3c(c2)CN(C)C(=O)N3)c1 | inactive | –
COc1ccc(CNC(=O)C2(c3cccs3)CCOCC2)cc1 | inactive | –
CCOC(=O)c1cc2n(n1)C(C(F)(F)F)CC(C)N2 (stereo not drawn) | inconclusive: 0.267% | –
Cc1ccc(C)c(OCCC(=O)Nc2cccc(S(=O)(=O)NC3=NCCCCC3)c2)c1 | – | inconclusive: 18.4 µM [falling, partial curve, poor fit]
CCOC(=O)C1CCN(C(=O)COc2ccc(Cl)cc2C)CC1 | – | inconclusive: 3.66 µM [falling, single point]
COc1ccccc1-c1ccc(SCc2ccccc2F)nn1 | – | inconclusive: 15.8 µM [falling, single point]
Cc1ccc(-n2nc3c(=O)n(CCCC(=O)NCc4cccc(Cl)c4)nc(C)c3c2C)cc1 | inconclusive: -1.55% | –
CCc1cc2cc(C(=O)Nc3ccc(F)cc3)sc2s1 | – | inconclusive: 20.6 µM [falling, partial curve]
CCOC(=O)c1sc(N)c(C(=O)OC)c1C | inconclusive: -12.3% | –
CN(Cc1ccc(F)cc1)C(=O)c1ccc(NC(=O)CC2SC(N3CCCC3)=NC2=O)cc1 (stereo not drawn) | inconclusive: 7.69% | –
COCCN(Cc1ccccc1)C(=O)c1cccc(S(=O)(=O)N2CCCc3ccccc32)c1 | inconclusive: 0.305% | –

SMILES | activity change, negative = inhibition | Potency
O=C(NNC(=O)c1cc(-c2ccc(Cl)c(Cl)c2)nc2ccccc12)Nc1ccccc1 | inactive | –
Nc1ccc(Nc2ccccc2N)cc1 | inactive | –
O=C(c1ccc([N+](=O)[O-])o1)N1CCc2ccccc21 | inactive | –
CCCC[n+]1ccc(-c2nc3ccc([N+](=O)[O-])cc3[nH]2)cc1 | inconclusive: 6.94% | –
CN1CCN(c2nc(-c3ccccc3)c3cc(Cl)ccc3n2)CC1 | inconclusive: -2.17% | –
Cc1ccc(C(=O)Nc2nc3ccccc3n2CCN2CCCC2)cc1 | – | inconclusive: 22.4 µM [falling, single point]
COc1ccc2c(Cl)c(C(=O)NC3CCS(=O)(=O)C3)sc2c1 (stereo not drawn) | inconclusive: -0.322% | –
O=[N+]([O-])c1ccc(NC(=S)NCCc2ccccc2)cc1 | inconclusive: 2.74% | –
Cc1ccc(NC(=O)c2ccc(C)c(S(=O)(=O)N3CCCCCC3)c2)cc1 | – | inconclusive: 1.58 µM [rising, full curve]
COCc1cc(=O)n2[nH]c(-c3ccsc3-n3c(C)ccc3C)cc2n1 | inconclusive: 8.45% | –
COc1cccc(-c2nc(CS(=O)(=O)CC(=O)Nc3ccc(F)cc3F)c(C)o2)c1 | inconclusive: -13.3% | –
CC(=O)CC(=O)Nc1ccccc1NC(C)=O | inconclusive: -15.1% | –
CCOc1cccc(OCCOCCNC(C)(C)C)c1 | inactive | –
O=C(CC1Sc2ccccc2NC1=O)Nc1cccc(C(F)(F)F)c1 (stereo not drawn) | inconclusive: 15.6% | –
Cc1cccc(-c2cccc(NC(=O)C3CCCN(C(=O)c4csc(C)n4)C3)c2)c1 (stereo not drawn) | inconclusive: -10.4% | –
COCCn1c(C(F)(F)F)ccc(NC(=O)c2ccccc2)c1=O | inconclusive: -1.51% | –
CCOC(=O)c1cnc(SCC(=O)Nc2cc(OC)cc(OC)c2)nc1N | inconclusive: -0.961% | –
O=C(Nc1cc2c3c(c1)CC(=O)N3CCC2)c1ccc(F)cc1 | – | inconclusive: 29.1 µM [falling, single point]
O=C(CSc1nc2ccccc2c(=O)n1C1CC1)NCc1ccccc1 | inconclusive: 7.15% | –
CC(C)Nc1ncnc2c1cnn2-c1ccccc1 | – | inconclusive: 20.6 µM [falling, partial curve]
CCCOc1ccccc1-c1nc(SCCC(=O)O)n[nH]1 | – | inconclusive: 14.6 µM [falling, partial curve]

Shown with tabs: two of the compounds above
SMILES	activity change, negative = inhibition	Potency
Nc1ccc(Nc2ccccc2N)cc1	inactive	–
COCCn1c(C(F)(F)F)ccc(NC(=O)c2ccccc2)c1=O	inconclusive: -1.51%	–

Further results follow.

SMILES | activity change, negative = inhibition | Potency
CCn1c(C)c(C)c2cc(C(=O)NCCN3CCCCCC3)ccc21 | inactive | –
COc1ccc(C)cc1-n1nnnc1SCC(=O)NC(=O)NCc1ccco1 | inactive | –
N#CC1(Cc2ccccc2)c2ccccc2C=CN1C(=O)c1ccccc1 (stereo not drawn) | inactive | –
CCCNC(=O)Nc1nc(CC(=O)OCC)cs1 | inactive | –
O=C1c2ccccc2C(=O)c2c1cccc2N1CCN(CCO)CC1 | inconclusive: -34% | –
CC(C)(C)S(=O)(=O)c1cnc2c(-c3ccsc3)cnn2c1N | inactive | –
Nc1nc(N)nc(-c2cc(F)ccc2O)n1 | – | inconclusive: 6.51 µM [activator, partial curve, poor fit]
COc1cc(NC(=O)c2ccccc2F)c(OC)cc1NC(=O)CN1CCCCC1 | – | inconclusive: 8.91 µM [rising, partial curve, poor fit]
CCc1ccc(-c2ccc(SCC(=O)Nc3nnc(C)s3)nn2)cc1 | – | inconclusive: 6.31 µM [falling, partial curve]
CCOC(=O)c1c(C)n(C)c2ccc(OC)c(NC(=O)CN3CCN(Cc4ccccc4)CC3)c12 | inconclusive: -28.2% | –
CCO[C@@H]1OC(C(N)=O)=C[C@H](c2coc3ccccc3c2=O)[C@H]1CCCO | inconclusive: 2.46% | –
CCOC(=O)C(=CNNc1ccsc1C(=O)OC)C(=O)OCC | inconclusive: -5.18% | –
CN(C)c1nc(SCCOC(=O)c2ccccc2)nc(N(C)C)n1 | inconclusive: 18% | –
Oc1ccc(/C=N/N=C/c2ccc(O)cc2)cc1 | inconclusive: -29.5% | –
O=C(NC(=S)Nc1cc(C(F)(F)F)ccc1N1CCOCC1)c1sc2ccccc2c1Cl | inconclusive: -8.91% | –
COc1ccc(Nc2ncnc3nc[nH]c23)cc1OC | – | inconclusive: 29.1 µM [falling, single point]
COc1ccccc1C(=O)COC(=O)/C=C/c1ccccc1 | – | inconclusive: 22.4 µM [falling, single point]
Cn1c(=O)c2[nH]c(-c3ccccc3Cl)c(O)c2n(C)c1=O | inconclusive: -5.71% | –
Cc1cc2nc(-c3ccc(SCC(=O)Nc4ccc(S(=O)(=O)N5CCCC5)cc4)nc3)[nH]c2cc1C | inconclusive: -11.4% | –
CCN(CC)CCn1c(NCc2ccc(C)o2)nc2ccccc21 | inactive | –

Grouped by structure: the entries above with a tert-butyl group (2)
SMILES | activity change, negative = inhibition | Potency
CCOc1cccc(OCCOCCNC(C)(C)C)c1 | inactive | –
CC(C)(C)S(=O)(=O)c1cnc2c(-c3ccsc3)cnn2c1N | inactive | –

A second format for two compounds above:
SMILES	activity change, negative = inhibition	Potency
Cc1ccc(C)c(OCCC(=O)Nc2cccc(S(=O)(=O)NC3=NCCCCC3)c2)c1	–	inconclusive: 18.4 µM [falling, partial curve, poor fit]
CCOC(=O)C1CCN(C(=O)COc2ccc(Cl)cc2C)CC1	–	inconclusive: 3.66 µM [falling, single point]
